Test results taken from paper PMC3823941.

Assays:
Test in all cases: co-IP; S2 cells co-transfected; lysis buffer 100 mM NaCl, 50 mM Tris.HCl pH8.0, 1.5 mM EDTA, 10% glycerol, 1% NP-40; immunoprecipitation with anti-Myc and protein A resin, western blot with anti-HA, anti-Hrs or anti-Flag; MG132 and NH4Cl to block Smo degradation; some samples with HhN-conditioned medium, USP8 overexpression or RNAi, Hrs overexpression or RNAi
[1] = molecular target: T1, Myc-Smo (Smoothened, full-length) (Drosophila) (UniProt P91682)
T1 sequence: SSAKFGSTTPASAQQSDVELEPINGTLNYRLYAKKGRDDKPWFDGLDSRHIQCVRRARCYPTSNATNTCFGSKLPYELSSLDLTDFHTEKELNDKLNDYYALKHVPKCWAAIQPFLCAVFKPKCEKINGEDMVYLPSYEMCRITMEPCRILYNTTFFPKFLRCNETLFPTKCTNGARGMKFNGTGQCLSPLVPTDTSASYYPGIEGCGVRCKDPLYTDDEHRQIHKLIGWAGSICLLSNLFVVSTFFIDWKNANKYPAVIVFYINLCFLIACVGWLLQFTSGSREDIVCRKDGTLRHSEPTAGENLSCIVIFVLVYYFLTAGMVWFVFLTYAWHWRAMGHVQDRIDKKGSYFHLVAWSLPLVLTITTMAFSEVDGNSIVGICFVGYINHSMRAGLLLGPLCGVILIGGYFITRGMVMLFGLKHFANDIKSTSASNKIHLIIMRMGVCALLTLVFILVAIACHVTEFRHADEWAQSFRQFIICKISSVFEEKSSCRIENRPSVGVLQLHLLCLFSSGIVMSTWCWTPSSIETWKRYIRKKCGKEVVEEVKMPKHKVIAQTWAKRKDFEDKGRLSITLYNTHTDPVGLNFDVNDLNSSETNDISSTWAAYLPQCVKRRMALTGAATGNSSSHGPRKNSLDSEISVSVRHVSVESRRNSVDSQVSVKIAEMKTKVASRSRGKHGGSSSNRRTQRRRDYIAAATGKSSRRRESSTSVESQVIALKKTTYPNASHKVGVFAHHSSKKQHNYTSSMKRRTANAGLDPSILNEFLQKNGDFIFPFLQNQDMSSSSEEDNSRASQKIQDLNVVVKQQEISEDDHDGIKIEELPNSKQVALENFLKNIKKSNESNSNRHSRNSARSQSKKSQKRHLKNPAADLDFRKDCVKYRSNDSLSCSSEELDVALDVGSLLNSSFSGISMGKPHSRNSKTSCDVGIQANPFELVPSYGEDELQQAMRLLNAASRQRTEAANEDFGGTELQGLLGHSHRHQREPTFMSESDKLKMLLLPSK

[2] = molecular target: SmoCT truncation with amino acids 679–764 deleted (Drosophila)
[3] = molecular target: Smo transmembrane domain (Drosophila)
[4] = molecular target: Smo cytoplasmic tail (C-tail) (Drosophila)

Flag-USP8 (enzyme)
binding [1]: binds

B1: HA-Hrs (full-length Hrs) (protein, UniProt Q960X8 1-760)
chain: MFRSSFDKNLENATSHLRLEPDWPSILLICDEINQKDVTPKNAFAAIKKKMNSPNPHSSCYSLLVLESIVKNCGAPVHEEVFTKENCEMFSSFLESTPHENVRQKMLELVQTWAYAFRSSDKYQAIKDTMTILKAKGHTFPELREADAMFTADTAPNWADGRVCHRCRVEFTFTNRKHHCRNCGQVFCGQCTAKQCPLPKYGIEKEVRVCDGCFAALQRPTSGSGGAKSGPRPADSELPAEYLNSTLAQQVQTPARKTEQELKEEEELQLALALSQSEAEQQKPKLQSLPPAAYRMQQRSPSPEAPPEPKEYHQQPEEATNPELAKYLNRSYWEQRKISESSSMASPSAPSPMPPTPQPQQIMPLQVKSADEVQIDEFAANMRTQVEIFVNRMKSNSSRGRSISNDSSVQTLFMTLTSLHSQQLSYIKEMDDKRMWYEQLQDKLTQIKDSRAALDQLRQEHVEKLRRIAEEQERQRQMQMAQKLDIMRKKKQEYLQYQRQLALQRIQEQEREMQLRQEQQKAQYLMGQSAPPFPYMPPSAVPQHGSPSHQLNNVYNPYAAGVPGYLPQGPAPAPNGHGQFQAIPPGMYNPAIQQPMPPNLQPGGLMQQPAPPGNPQMMPPMPENQFANNPAAILQLPQQHSIAQPPQIPFQPQPQQIPGQQPQQIPGQQPQQIPGQQPQQIPGQQPQQIPVQQPQPQPQMGHVMLQQHQAPPAAQAPPVTEIANNQVQAVAAAPAPPQNEPGPAPVKAEEPATAELISFD
binding [2]: no binding | binding [3]: no binding | binding [4]: binds

These are yes or no findings as the source states them, for the method shown. Binding seen in cells or lysates may run through a third protein. For some of these results: Binding can be weak; no strength is given. Sequences can lack the tags named with a protein.
